Experimental data as given in publication doi:10.1101/2024.04.11.588828.
No constants are given. Whether binding was seen depends on the method and setting. In cells and extracts the contact can be indirect. Some results given as binding are weak or reduced against the parent protein; the word gives no strength.

Sequences of proteins named here, by UniProt entry; tags and fusion partners are left off.
UniProt P08247: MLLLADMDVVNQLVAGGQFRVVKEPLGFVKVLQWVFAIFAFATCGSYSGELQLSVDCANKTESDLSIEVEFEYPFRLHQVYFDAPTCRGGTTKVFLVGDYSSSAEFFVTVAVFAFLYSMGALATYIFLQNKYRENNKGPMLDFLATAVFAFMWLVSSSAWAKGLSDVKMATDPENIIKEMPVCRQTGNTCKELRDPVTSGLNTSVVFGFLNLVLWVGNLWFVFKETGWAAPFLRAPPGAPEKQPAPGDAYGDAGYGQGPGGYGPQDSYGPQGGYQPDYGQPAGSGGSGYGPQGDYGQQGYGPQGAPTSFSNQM
UniProt P63027: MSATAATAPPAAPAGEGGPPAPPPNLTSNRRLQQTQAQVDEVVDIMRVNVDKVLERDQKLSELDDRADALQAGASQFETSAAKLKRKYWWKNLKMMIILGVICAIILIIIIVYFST

Target: human synaptophysin (Syp), LuTHy fusion (human) (UniProt P08247)
Test: FRET or BRET

## human VAMP2 (synaptobrevin), LuTHy fusion (from UniProt P63027 1-116)
  binding: binds
